The results in this text go back to article PMC11079023.

What all share (assay): two-hybrid; BD-M5DELLA (pGBKT7, RGA 199-587 and variants) and AD-JAZ1, AD-TCP14, AD-IDD2 or AD-BZR1 (pGADT7) co-transformed in yeast AH109; growth on selective medium lacking tryptophan, leucine and histidine, in some cases with 3AT
The target in test [1] is T1, BD-M5RGA (C-terminal part of RGA, amino acids 199 to 587, fused to the GAL4 DNA-binding domain) (Arabidopsis) (UniProt Q9SLH3).
T1 sequence: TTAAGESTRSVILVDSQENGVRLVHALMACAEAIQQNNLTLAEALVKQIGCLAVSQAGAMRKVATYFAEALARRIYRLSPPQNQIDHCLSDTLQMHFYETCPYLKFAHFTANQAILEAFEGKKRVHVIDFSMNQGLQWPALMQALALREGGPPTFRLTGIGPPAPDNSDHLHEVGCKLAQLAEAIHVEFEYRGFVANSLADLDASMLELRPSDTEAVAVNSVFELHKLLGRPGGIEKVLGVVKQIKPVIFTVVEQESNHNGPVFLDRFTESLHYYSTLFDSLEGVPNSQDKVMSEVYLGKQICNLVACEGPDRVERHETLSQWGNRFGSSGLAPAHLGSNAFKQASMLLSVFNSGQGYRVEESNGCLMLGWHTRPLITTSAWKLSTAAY

Test [2] addresses T2, BD-M5RGA^m1 (RGA 199-587 with G218A, V219A, R220A, fused to the GAL4 DNA-binding domain) (Arabidopsis) (UniProt Q9SLH3).
T2 sequence: T1 sequence with G20A, V21A, R22A

Test [3] concerns the target T3, BD-M5RGA^m2 (RGA 199-587 with H471A, Y472A, Y473A, fused to the GAL4 DNA-binding domain) (Arabidopsis) (UniProt Q9SLH3).
T3 sequence: T1 sequence with H273A, Y274A, Y275A

The target of test [4] is T4, BD-M5RGA^m3 (RGA from amino acid 199 with S578Stop, fused to the GAL4 DNA-binding domain) (Arabidopsis) (UniProt Q9SLH3).
T4 sequence: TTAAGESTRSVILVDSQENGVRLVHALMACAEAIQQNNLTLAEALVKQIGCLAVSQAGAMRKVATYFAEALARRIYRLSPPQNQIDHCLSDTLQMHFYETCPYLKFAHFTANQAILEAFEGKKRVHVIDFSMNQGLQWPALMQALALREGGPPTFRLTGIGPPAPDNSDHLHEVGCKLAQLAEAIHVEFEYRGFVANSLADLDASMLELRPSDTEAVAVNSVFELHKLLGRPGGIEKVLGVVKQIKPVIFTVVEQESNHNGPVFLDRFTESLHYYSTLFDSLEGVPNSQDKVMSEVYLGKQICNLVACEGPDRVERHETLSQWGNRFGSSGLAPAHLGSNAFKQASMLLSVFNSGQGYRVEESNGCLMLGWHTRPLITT

The target in test [5] is T5, BD-M5RGA^m4 (RGA 199-587 with S578D, fused to the GAL4 DNA-binding domain) (Arabidopsis) (UniProt Q9SLH3).
T5 sequence: T1 sequence with S380D

Residue numbers refer to the chain shown, from its start. No constants are given. Whether binding was seen depends on the method and setting. For some assays here: Binding calls can cover weak binding; strength is not graded here. Sequences can lack the tags named with a protein.

AD-JAZ1: the binding result is recorded as “binds” in test [1]; “binds” in test [2]; “no binding” in test [3]; “no binding” in test [4]; “no binding” in test [5].
